Results as given in patent publication EP0019589A1, “Tripeptide derivatives and their use in a process for determining enzymes” (Pentapharm A.G., priority 1979, dated 1980).
Some entries share one result that the patent states for a list of compounds. Non-standard residues stand in square brackets, D forms with d. Residues, ends and D or L forms follow the SMILES beside them. *: point of attachment. dCha = N[C@H](CC1CCCCC1)C(=O)O; dChg = N[C@@H](C(=O)O)C1CCCCC1; pNA = O=[N+]([O-])c1ccc(N*)cc1; Pip = O=C(O)[C@@H]1CCCCN1; Nle = CCCC[C@H](N)C(=O)O; Nva = CCC[C@H](N)C(=O)O; Abu = CC[C@H](N)C(=O)O

Columns and labels:
Urinkallikrein = target: T1, Urinkallikrein (Homo sapiens, UniProt P06870); assay: Cleavage of chromogenic substrate by urinary kallikrein in human urine; type: biochemical; settings: statement in words
T1 construct: 1 ml Urin und 1 ml TRIS-Imidazol-Puffer mit pH 7,9; from tissue; host or cells: human urine
Procedure: 1. Bestimmung von Urinkallikrein.
1 ml Urin und 1 ml TRIS-Imidazol-Puffer mit pH 7,9 und Ionenstärke 1,0 werden 5 Min. bei 37°C inkubiert undcänn zentrifugiert, um Sedimente zu entfernen.
In einer-Plastikküvette werden 1,4 ml dest. H20 von 37°C und 0,4 ml des Zentrifugats gut gemischt. Zu dieser Mischung gibt man 0,2 ml einer 2 x 10^-3 molaren wässrigen Substratlösung und durchmischt die Komponenten schnell. Dieses Gemisch wird genau 15 Min. bei 37°C inkubiert. Dann wird dem Reaktionsgemisch 0,2 ml Eisessig zugemischt, um die Enzymreaktion zu unterbrechen. Zur Farbmessung verwendet man eine Vergleichsprobe (Blindprobe), die aus den gleichen Komponenten zusammengesetzt ist, wobei jedoch der Eisessig vor Zugabe des Substrates zugesetzt wird, um die Enzymreaktion zu verhindern. Dann wird bei 405 nm photometrisch oder spektrophotometrisch die Menge der gebildeten farbigen Verbindung RNH 2 aus der Differenz zwischen der Blindprobe und der zu bestimmenden Probe ermittelt. Aus dem ermittelten Wert wird die Urinkallikreinaktivität im Urin nach der folgenden Formel berechnet: [formula] • Δ OD = Zunahme der optischen Dichte bei 405 nm während 15 Min. • V = Totalvolumen des Bestimmungsansatzes = 2,2 ml • 1000 = Umrechnungsfaktor zur Umwandlung von U in mU • F = Verdünnungsfaktor des Urins (2) • v = Volumen der Probe = 0,4 ml • ε = Extinktionskoeffizient dividiert durch 1000 = 10,4
Bei der oben beschriebenen Bestimmungsmethode misst man somit die Summe der Aktivitäten von Urinkallikrein und Urokinase. Um die genaue Urinkallikreinaktivität zu erhalten, muss man die Urokinaseaktivität abziehen, welche dadurch bestimmt werden kann, dass man in einem Vergleichsversuch durch Zugabe von 0,075 Einheiten Trypsininhibitor (Trypsininhibitor aus Rinderlunge) pro ml Puffer die Urinkallikreinaktivität vollständig hemmt und nur die Urokinaseaktivität misst.
(§1) Bei der Messung des durch die enzymatische Hydrolyse des Substrates gebildeten Spaltproduktes RrNH2 geht man von der Voraussetzung aus, dass das Spaltprodukt ein UV-Spektrum besitzt, das von demjenigen des Substrates verschieden und in Richtung höherer Wellenlängen verschoben ist. Die Absorption des Substrates bei 405 nm ist praktisch Null. p-Nitroanilin als Spaltprodukt weist ein Absorptionsmaximum bei 380 nm und einen molaren Extinktionskoeffizienten von 13'200 auf. Bei 405 nm ist der Extinktionskoeffizient nur wenig niedriger, d.h. […] Der Grad der enzymatischen Hydrolyse des Substrates, welcher der Menge des abgespaltenen p-Nitroanilins proportional ist, lässt sich durch spektrophotometrische Messung bei 405 nm bestimmen. Auch bei Anwesenheit eines Ueberschusses an Substrat wird die Messung bei 405 nm nicht gestört.
(§2) Bei den Substraten, die als chromogene Gruppe eine 2-Naphthylamino-, 4-Methoxy-2-naphthylamino-, 4-Methyl-cumaryl-(7)-amino- oder 1,3-Di(methoxycarbonyl)-phenyl-(5)-amino-Gruppe enthalten, wird die Menge des Spaltproduktes R-NH2 durch Fluoreszenzspektrophotometrie gemessen. In einem aus Enzym, Puffer und Substrat bestehenden Testsystem misst man kontinuierlich das energieärmere emittierte Licht bei 400-470 nm, nachdem man das gebildete fluoreszierende Spaltprodukt mit energiereicherem Licht erregt hat. Die pro Zeiteinheit gebildete Menge Spaltprodukt ist ein Mass für die vorhandene Enzymaktivität. 1 µMol Spaltprodukt pro Minute entspricht definitionsgemäss 1 Enzym-Einheit, bezogen auf ein gegebenes Substrat.

Humanthrombin = target: T2, Humanthrombin (Homo sapiens, UniProt P00734); assay: Cleavage of chromogenic substrate by human NIH thrombin; type: biochemical; settings: statement in words
T2 construct: Humanplasmin und hu-manem NIH-Thrombin
Description: as §1, §2

| Compound | Eignung als Substrate zur Bestimmung von Urinkallikrein (Urinkallikrein) | Empfindlichkeit als Substrate für die Bestimmung von Thrombin (Humanthrombin) |
| --- | --- | --- |
| N=C(N)NCCC[C@H](NC(=O)[C@@H]1CCCN1C(=O)[C@H](N)CC1CCCCC1)C(=O)Nc1ccc([N+](=O)[O-])cc1 [Beispiel 19, 2HBr.H-D-CHA-Pro-Arg-pNA] (H-[dCha]-Pro-Arg-pNA) | eignen sich besonders als Substrate | sehr empfindliche Substrate |
| N=C(N)NCCC[C@H](NC(=O)[C@@H]1CCCCN1C(=O)[C@H](N)C1CCCCC1)C(=O)Nc1ccc([N+](=O)[O-])cc1 [Beispiel 65, 2HBr.H-D-CHG-Pip-Arg-pNA] (H-[dChg]-[Pip]-Arg-pNA) | eignen sich besonders als Substrate | sehr empfindliche Substrate |
| CCCC[C@H](NC(=O)[C@H](N)CC1CCCCC1)C(=O)N[C@@H](CCCNC(=N)N)C(=O)Nc1ccc([N+](=O)[O-])cc1 [Beispiel 68, 2HBr.H-D-CHA-Nleu-Arg-pNA] (H-[dCha]-[Nle]-Arg-pNA) |  | sehr empfindliche Substrate |
| CCC[C@H](NC(=O)[C@H](N)CC1CCCCC1)C(=O)N[C@@H](CCCNC(=N)N)C(=O)Nc1ccc([N+](=O)[O-])cc1 [Beispiel 69, 2HBr.H-D-CHA-Nval-Arg-pNA] (H-[dCha]-[Nva]-Arg-pNA) |  | sehr empfindliche Substrate |
| CCC[C@H](NC(=O)[C@H](N)C1CCCCC1)C(=O)N[C@@H](CCCNC(=N)N)C(=O)Nc1ccc([N+](=O)[O-])cc1 [Beispiel 70, 2HBr.H-D-CHG-Nval-Arg-pNA] (H-[dChg]-[Nva]-Arg-pNA) |  | sehr empfindliche Substrate |
| CC[C@H](NC(=O)[C@H](N)C1CCCCC1)C(=O)N[C@@H](CCCNC(=N)N)C(=O)Nc1ccc([N+](=O)[O-])cc1 [Beispiel 75, 2HBr.H-D-CHG-But-Arg-pNA] (H-[dChg]-[Abu]-Arg-pNA) |  | sehr empfindliche Substrate |
| CC[C@H](NC(=O)[C@H](N)CC1CCCCC1)C(=O)N[C@@H](CCCNC(=N)N)C(=O)Nc1ccc([N+](=O)[O-])cc1 [Beispiel 76, 2HBr.H-D-CHA-But-Arg-pNA] (H-[dCha]-[Abu]-Arg-pNA) |  | sehr empfindliche Substrate |
| CC[C@H](NC(=O)[C@H](N)CC1CCC(O)CC1)C(=O)N[C@@H](CCCNC(=N)N)C(=O)Nc1ccc([N+](=O)[O-])cc1 (stereo partly drawn) [Beispiel 77, 2HBr.H-D-CHT-But-Arg-pNA] |  | sehr empfindliche Substrate |
